Publication doi:10.1101/2022.01.20.477145
These are yes or no findings as the source states them, for the method shown. In cells and extracts the contact can be indirect. A yes stands for co-enrichment or nearness to the bait. Other partners may have been found.

Amino acid sequences for entries named in this document (tags omitted).
UniProt O14744: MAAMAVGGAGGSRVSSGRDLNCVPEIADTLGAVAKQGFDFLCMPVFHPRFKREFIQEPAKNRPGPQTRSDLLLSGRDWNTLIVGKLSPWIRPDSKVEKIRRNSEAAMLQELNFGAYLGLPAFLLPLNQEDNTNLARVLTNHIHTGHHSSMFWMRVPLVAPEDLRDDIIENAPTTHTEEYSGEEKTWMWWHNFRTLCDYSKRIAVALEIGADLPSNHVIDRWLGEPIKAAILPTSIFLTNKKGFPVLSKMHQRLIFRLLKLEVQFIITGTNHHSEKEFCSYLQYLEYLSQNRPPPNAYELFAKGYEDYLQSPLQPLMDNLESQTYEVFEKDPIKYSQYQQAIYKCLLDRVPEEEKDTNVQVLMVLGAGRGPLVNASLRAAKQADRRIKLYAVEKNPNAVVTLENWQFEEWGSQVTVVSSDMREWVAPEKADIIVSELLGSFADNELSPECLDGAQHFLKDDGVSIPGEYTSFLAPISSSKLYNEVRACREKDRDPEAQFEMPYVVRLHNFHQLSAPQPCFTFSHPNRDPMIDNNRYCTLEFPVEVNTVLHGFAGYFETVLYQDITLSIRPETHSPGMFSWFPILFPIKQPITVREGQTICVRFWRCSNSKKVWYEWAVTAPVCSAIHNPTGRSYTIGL
UniProt P11171: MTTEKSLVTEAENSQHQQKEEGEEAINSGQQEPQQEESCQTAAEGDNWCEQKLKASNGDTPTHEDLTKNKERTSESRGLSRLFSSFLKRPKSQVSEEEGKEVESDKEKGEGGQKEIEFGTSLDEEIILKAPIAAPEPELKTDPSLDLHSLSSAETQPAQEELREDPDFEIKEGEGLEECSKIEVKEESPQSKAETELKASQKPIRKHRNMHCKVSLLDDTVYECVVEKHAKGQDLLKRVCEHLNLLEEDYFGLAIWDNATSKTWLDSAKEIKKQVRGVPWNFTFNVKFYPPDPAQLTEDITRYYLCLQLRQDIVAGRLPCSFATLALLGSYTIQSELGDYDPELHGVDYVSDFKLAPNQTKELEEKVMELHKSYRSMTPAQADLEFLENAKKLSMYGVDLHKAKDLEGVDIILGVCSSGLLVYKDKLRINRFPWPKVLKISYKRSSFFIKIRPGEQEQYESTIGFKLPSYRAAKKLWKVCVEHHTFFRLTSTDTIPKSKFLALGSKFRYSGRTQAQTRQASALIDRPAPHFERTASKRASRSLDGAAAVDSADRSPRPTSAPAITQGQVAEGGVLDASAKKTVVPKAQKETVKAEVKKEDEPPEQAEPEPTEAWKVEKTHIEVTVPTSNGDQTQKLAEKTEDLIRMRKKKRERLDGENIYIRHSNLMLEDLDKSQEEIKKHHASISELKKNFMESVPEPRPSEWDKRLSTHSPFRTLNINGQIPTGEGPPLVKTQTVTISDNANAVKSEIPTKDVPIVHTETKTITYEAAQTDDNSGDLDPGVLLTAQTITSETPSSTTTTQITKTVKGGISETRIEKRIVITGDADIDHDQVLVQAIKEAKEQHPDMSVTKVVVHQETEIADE
UniProt O95785: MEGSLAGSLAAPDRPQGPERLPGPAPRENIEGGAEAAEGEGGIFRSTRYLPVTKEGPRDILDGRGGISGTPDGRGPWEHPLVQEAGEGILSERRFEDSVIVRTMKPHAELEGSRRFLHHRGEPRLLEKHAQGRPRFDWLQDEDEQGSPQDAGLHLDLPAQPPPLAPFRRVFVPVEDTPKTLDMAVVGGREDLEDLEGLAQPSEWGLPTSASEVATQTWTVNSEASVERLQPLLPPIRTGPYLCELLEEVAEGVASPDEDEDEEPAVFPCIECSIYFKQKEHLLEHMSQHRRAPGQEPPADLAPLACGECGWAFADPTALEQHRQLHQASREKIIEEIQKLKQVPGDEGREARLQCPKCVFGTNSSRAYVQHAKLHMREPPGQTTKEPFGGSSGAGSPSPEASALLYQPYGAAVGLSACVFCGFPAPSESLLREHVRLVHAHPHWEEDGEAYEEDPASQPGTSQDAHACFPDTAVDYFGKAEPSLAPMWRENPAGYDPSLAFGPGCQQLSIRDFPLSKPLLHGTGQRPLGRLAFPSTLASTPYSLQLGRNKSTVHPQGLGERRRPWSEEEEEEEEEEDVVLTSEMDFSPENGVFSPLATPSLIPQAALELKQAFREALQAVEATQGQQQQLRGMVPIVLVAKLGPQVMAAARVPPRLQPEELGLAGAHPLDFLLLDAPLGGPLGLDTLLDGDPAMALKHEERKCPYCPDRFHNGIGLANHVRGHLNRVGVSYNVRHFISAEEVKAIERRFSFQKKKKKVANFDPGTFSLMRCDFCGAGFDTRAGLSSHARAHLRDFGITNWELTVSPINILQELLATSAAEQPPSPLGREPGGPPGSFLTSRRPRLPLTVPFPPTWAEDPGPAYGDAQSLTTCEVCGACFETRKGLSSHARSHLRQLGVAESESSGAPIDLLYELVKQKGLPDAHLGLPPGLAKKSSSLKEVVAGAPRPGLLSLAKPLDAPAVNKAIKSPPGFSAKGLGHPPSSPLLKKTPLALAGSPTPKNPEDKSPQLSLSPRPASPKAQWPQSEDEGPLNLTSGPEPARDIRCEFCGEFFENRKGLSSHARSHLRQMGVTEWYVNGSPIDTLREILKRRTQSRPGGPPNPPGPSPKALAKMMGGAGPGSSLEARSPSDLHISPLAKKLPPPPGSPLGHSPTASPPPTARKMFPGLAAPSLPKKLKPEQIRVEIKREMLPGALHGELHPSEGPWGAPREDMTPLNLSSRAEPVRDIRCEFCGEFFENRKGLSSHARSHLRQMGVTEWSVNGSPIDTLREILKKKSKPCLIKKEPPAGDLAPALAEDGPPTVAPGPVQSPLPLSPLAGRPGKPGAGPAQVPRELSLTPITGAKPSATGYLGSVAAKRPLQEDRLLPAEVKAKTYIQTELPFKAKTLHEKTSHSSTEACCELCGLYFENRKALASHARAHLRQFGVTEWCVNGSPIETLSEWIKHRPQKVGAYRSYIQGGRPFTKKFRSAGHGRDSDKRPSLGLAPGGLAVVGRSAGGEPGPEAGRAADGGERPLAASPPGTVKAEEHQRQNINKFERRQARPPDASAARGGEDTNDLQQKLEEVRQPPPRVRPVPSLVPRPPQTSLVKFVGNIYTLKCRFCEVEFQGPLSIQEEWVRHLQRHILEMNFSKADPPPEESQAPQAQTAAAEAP

Biological target: protein arginine methyltransferase PRMT5 (human (endogenous in KMS11)) (UniProt O14744)
Experiment: affinity purification with mass spectrometry

Row | binding | Substance
1 | binds | EPB41 (from UniProt P11171 1-864)
2 | binds | zinc finger protein WIZ (from UniProt O95785 1-1651)
